PubChem BioAssay AID1259254 – NCATS | 2017

- Assay: 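Genome-wide screen for genes that prevent DNA re-replication in cancer cells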 (primary screen)
- System: human HCT116 colorectal cancer cells
- Knock-down reagent: single siRNA against human genes
- Timing: 3 days
- Measurement: 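Nuclei stained with Hoechst and imaged; cell-cycle phase assigned by DNA content; G2 share scaled per plate, non-targeting siRNA 0%, GMNN siRNA 100%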
- Reading the numbers: G2 robust z-score: higher = more G2 cells, more excess DNA replication
- Call rule: 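Active siRNAs have a G2 robust z of 5 or more median absolute deviations over the median, which in these data means about 38% or higher of GMNN control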
In all, the deposit lists about 59,000 reagents; this is a part drawn at random. Over the whole deposit, about 1,550 (2.6%) were called active. 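G2 share is only a proxy for re-replication; each gene was hit by three separate siRNAs, and active genes were retested.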 Unmarked entries are inactive. The numbers tell different reagents against one gene apart. Further read-outs or replicates are left out here. Reagent sequences are not shown. The record does not give: the amount of reagent.

{"target gene":"DALRD3 (DALR anticodon binding domain containing 3)","reagent no.":1,"G2 robust z-score":0.583}
{"target gene":"DALRD3 (DALR anticodon binding domain containing 3)","reagent no.":2,"G2 robust z-score":-1.14}
{"target gene":"DALRD3 (DALR anticodon binding domain containing 3)","reagent no.":3,"G2 robust z-score":1.62}
{"target gene":"H2AZ2 (H2A.Z variant histone 2)","reagent no.":1,"G2 robust z-score":-0.0532}
{"target gene":"H2AZ2 (H2A.Z variant histone 2)","reagent no.":2,"G2 robust z-score":-0.578}
{"target gene":"H2AZ2 (H2A.Z variant histone 2)","reagent no.":3,"G2 robust z-score":0.359}
{"target gene":"EIF3L (eukaryotic translation initiation factor 3 subunit L)","reagent no.":1,"G2 robust z-score":1.65}
{"target gene":"EIF3L (eukaryotic translation initiation factor 3 subunit L)","reagent no.":2,"G2 robust z-score":1.02}
{"target gene":"EIF3L (eukaryotic translation initiation factor 3 subunit L)","reagent no.":3,"G2 robust z-score":2.67}
{"target gene":"LOC647481 (family with sequence similarity 91 member A1 pseudogene)","reagent no.":1,"G2 robust z-score":-0.895}
{"target gene":"LOC647481 (family with sequence similarity 91 member A1 pseudogene)","reagent no.":2,"G2 robust z-score":1.9}
{"target gene":"LOC647481 (family with sequence similarity 91 member A1 pseudogene)","reagent no.":3,"G2 robust z-score":1.27}

As entered above.
Entry of LOC647481 (family with sequence similarity 91 member A1 pseudogene) #2 under “G2 robust z-score”: 1.9
Under “G2 robust z-score”, H2AZ2 (H2A.Z variant histone 2) #2 is entered as -0.578
